No constants are given. Whether binding was seen depends on the method and setting. In cells and extracts the contact can be indirect. Some results given as binding are weak or reduced against the parent protein; the word gives no strength.
Tests used:
[1] = target: HOXB7 (human (endogenous in KYSE150 and KYSE450)) (UniProt P09629); experiment: co-IP; anti-HOXB7 antibody immobilised on AminoLink Plus Coupling Resin; precleared KYSE150 and KYSE450 lysates incubated overnight at 4°C; eluate blotted with anti-Ku70, anti-Ku80, anti-DNA-PKcs
GST-HOXB7 fusion protein = GST-HOXB7 fusion protein (UniProt P09629); experiment: pull-down; GST-tagged HOXB7 immobilised on glutathione agarose; KYSE150 and KYSE450 lysates added, 4°C at least 1 hour; eluate blotted with anti-Ku70, anti-Ku80, anti-DNA-PKcs; only the target purified

By UniProt entry, the sequences of proteins in these tests, tags left out.
UniProt P09629: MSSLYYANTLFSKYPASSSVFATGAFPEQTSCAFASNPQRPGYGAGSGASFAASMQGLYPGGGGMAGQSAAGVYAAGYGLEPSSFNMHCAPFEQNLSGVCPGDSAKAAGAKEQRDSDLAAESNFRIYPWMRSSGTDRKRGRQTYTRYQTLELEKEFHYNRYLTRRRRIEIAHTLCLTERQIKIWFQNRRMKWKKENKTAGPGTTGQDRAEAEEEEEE
UniProt P78527: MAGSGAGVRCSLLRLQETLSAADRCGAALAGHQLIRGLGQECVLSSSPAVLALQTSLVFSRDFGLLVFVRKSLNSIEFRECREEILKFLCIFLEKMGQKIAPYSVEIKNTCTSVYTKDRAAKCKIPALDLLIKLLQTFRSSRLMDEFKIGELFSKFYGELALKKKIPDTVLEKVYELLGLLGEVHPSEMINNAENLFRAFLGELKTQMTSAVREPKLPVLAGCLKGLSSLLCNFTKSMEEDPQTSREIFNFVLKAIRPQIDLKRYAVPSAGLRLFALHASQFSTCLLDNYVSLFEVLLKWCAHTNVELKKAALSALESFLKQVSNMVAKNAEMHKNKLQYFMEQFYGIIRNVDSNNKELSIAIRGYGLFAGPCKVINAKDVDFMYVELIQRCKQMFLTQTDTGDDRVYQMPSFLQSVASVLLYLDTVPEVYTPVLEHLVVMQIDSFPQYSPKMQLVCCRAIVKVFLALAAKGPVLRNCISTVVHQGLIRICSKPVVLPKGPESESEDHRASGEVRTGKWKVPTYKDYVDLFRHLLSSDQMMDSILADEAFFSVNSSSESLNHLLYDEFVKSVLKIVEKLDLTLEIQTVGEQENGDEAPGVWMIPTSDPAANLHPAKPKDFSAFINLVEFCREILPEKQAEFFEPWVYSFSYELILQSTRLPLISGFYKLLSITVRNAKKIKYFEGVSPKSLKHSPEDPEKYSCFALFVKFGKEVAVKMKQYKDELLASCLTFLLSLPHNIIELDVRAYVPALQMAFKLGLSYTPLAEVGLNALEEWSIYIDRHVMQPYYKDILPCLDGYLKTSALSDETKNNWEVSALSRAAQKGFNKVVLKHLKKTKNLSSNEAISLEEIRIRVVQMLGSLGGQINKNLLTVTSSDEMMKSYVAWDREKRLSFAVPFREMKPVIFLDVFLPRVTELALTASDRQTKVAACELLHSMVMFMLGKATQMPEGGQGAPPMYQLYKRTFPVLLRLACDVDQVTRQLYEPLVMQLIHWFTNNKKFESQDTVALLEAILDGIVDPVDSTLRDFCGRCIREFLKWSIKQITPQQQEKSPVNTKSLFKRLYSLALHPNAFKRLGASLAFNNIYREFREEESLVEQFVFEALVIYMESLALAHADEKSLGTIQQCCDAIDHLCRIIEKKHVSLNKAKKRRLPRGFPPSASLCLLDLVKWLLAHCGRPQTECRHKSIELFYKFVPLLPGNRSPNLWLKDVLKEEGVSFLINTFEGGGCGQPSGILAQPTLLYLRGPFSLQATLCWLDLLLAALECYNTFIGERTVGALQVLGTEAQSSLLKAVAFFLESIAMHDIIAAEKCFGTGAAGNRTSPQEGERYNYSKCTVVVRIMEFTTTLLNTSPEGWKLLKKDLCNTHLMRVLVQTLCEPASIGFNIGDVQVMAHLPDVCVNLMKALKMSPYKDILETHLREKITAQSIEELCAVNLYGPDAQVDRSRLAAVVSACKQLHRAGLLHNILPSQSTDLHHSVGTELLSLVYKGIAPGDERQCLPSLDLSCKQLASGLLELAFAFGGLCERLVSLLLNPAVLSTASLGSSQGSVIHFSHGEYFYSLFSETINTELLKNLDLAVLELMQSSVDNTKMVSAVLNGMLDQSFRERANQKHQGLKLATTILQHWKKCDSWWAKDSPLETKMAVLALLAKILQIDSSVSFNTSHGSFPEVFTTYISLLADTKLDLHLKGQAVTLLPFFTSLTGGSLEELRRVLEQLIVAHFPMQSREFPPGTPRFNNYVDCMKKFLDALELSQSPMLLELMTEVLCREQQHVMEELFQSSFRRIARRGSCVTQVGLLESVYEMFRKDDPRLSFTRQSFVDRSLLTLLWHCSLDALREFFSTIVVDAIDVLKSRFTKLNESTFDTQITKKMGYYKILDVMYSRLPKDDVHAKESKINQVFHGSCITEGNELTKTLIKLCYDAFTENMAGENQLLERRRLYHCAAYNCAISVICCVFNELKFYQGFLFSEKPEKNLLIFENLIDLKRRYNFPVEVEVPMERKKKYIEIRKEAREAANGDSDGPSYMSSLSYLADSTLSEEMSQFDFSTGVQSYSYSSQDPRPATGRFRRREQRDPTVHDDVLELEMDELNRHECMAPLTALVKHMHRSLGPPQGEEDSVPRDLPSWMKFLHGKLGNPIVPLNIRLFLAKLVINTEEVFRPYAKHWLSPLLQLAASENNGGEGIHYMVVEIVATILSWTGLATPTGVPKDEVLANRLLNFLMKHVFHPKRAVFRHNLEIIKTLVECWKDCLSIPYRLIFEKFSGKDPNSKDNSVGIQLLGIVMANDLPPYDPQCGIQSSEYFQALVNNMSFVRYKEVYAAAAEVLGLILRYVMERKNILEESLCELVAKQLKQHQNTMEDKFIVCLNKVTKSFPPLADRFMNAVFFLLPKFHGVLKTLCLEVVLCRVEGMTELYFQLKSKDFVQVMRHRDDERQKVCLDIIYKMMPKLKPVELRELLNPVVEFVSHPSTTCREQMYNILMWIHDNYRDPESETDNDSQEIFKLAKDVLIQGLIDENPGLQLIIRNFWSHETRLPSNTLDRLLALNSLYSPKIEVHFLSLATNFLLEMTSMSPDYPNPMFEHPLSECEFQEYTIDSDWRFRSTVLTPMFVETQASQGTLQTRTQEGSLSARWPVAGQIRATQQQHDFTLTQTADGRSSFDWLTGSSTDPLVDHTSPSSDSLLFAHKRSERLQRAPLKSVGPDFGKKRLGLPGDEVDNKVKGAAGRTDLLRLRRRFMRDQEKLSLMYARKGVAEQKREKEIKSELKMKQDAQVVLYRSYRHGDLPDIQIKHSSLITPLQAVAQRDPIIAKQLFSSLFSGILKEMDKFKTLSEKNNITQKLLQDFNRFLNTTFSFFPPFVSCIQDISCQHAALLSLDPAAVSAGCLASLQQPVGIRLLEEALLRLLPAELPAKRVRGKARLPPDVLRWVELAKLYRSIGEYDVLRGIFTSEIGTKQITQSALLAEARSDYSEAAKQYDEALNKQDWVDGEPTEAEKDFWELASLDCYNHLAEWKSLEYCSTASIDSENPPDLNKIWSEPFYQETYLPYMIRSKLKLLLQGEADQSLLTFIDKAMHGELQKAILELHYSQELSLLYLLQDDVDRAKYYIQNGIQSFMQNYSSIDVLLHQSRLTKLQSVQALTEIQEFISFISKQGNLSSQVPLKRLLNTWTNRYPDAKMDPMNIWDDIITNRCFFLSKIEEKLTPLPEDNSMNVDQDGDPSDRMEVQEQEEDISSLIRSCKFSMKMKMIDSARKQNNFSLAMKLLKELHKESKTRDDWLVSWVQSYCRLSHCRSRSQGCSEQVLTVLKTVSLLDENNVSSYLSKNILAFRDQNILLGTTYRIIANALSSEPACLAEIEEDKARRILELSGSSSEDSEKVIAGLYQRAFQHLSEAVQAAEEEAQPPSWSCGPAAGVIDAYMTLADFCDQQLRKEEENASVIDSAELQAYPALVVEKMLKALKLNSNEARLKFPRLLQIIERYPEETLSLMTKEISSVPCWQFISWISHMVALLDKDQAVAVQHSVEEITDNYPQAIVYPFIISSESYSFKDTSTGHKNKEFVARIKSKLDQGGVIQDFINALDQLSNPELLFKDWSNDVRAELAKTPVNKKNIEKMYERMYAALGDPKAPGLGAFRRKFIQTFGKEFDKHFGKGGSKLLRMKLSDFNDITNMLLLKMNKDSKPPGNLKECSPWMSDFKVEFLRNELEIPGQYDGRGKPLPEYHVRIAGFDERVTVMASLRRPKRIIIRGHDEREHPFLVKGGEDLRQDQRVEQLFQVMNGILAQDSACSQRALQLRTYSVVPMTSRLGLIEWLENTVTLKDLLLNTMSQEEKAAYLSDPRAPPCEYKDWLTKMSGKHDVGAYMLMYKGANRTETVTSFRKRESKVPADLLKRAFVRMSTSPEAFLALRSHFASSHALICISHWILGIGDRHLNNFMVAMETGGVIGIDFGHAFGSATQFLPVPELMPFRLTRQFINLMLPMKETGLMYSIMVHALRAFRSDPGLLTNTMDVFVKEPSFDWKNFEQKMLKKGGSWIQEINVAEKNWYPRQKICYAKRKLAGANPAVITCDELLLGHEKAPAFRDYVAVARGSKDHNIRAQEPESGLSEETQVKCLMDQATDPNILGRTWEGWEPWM

Q: What does the source list for DNA-PKcs (from UniProt P78527 1-4128)?
A: binding [1]: binds; binding (GST-HOXB7 fusion protein): binds

Reference: PMC7606015
